Test results reported in the M2OR odorant receptor database.
The entries are a selection whose mix differs from that of the whole data set. The calls were merged from several studies; some rest on single wells. This is one part of the list.

Key:
Conditions in all cases: stereoisomer not certain
OR52K2 (Homo sapiens) = target: T1, OR52K2 (Homo sapiens) (UniProt Q8NGK3)
T1 sequence (whole entry): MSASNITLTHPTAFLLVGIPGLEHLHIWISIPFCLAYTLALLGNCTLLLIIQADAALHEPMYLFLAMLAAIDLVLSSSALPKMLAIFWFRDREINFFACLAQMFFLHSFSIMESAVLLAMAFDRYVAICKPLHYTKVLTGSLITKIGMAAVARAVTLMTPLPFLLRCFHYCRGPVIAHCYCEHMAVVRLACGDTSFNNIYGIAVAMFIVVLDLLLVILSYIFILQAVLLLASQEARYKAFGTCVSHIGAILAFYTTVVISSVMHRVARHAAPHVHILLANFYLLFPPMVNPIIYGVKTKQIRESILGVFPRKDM
Method in brief: (§1)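 Each receptor–molecule pair is labelled responsive or non-responsive (inactive) according to whether the original authors judged the measured signal statistically different from baseline. The data were taken from the main text and supplementary material of published papers and checked for typos and inconsistencies. Assay methods differed by source, with transient luciferase assays in mammalian cell lines being common.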

OR52N5 (Homo sapiens) = target: T2, OR52N5 (Homo sapiens) (UniProt Q8NH56)
T2 sequence (whole entry): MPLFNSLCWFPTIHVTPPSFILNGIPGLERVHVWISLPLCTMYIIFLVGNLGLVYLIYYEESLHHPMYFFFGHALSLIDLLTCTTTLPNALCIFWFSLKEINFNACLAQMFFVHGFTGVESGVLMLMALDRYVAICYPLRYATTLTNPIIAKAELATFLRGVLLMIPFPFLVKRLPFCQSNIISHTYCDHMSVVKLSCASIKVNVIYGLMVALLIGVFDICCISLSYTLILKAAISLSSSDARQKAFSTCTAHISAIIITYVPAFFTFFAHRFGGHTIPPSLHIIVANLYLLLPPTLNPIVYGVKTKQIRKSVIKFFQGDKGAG
Method in brief: as §1

OR56A1 (Homo sapiens) = target: T3, OR56A1 (Homo sapiens) (UniProt Q8NGH5)
T3 sequence (whole entry): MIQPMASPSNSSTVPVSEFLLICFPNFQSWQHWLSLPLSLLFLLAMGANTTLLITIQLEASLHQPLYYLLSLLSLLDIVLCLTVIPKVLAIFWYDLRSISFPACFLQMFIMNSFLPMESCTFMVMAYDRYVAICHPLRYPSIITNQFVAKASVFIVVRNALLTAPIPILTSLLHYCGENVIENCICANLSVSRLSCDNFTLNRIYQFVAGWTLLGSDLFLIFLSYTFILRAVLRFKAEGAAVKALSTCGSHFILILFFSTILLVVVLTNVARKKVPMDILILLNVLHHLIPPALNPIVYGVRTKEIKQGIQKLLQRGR
Method in brief: as §1

OR56A4 (Homo sapiens) = target: T4, OR56A4 (Homo sapiens) (UniProt Q8NGH8)
T4 sequence (whole entry): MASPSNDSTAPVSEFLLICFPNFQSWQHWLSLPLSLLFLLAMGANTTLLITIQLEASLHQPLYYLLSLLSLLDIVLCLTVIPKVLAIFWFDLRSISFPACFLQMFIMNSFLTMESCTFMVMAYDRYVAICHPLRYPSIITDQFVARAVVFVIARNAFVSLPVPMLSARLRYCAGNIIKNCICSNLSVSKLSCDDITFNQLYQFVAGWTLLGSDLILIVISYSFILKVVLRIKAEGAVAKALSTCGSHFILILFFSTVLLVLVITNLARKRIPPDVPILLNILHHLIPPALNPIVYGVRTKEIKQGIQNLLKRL
Method in brief: as §1

OR56A5 (Homo sapiens) = target: T5, OR56A5 (Homo sapiens) (UniProt P0C7T3)
T5 sequence (whole entry): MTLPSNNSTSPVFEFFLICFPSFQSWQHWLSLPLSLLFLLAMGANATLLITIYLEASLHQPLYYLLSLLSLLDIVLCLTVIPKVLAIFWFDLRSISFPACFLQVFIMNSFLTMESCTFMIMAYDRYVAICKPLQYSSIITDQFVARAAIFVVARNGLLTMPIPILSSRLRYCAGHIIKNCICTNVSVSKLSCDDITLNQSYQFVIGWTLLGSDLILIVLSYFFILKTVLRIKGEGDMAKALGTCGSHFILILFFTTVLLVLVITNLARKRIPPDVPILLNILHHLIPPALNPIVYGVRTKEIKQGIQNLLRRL
Method in brief: as §1

OR5A1 [1] = tested on: T6, OR5A1
T6 sequence (whole entry): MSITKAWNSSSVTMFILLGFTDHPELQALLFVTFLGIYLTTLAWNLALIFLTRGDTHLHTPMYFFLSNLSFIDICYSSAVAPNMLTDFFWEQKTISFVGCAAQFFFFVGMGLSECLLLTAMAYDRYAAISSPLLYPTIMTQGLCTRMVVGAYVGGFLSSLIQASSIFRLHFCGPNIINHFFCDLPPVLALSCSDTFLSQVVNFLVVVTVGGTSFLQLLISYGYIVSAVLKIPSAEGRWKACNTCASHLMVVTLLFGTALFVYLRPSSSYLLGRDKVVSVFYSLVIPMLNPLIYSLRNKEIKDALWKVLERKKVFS
Method in brief: as §1

OR5A1 [2] = tested on: T7, OR5A1; remark: listed apart in the source
T7 sequence (whole entry): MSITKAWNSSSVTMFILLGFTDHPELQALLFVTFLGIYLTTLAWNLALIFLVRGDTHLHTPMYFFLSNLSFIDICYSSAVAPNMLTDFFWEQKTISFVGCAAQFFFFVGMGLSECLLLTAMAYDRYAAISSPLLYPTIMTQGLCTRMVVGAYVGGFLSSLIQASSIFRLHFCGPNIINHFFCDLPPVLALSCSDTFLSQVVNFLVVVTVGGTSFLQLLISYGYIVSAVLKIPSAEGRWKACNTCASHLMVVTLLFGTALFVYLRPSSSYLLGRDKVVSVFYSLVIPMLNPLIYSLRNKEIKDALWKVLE
Method in brief: as §1

OR5A1 [3] = tested on: T8, OR5A1; remark: listed apart in the source
T8 sequence (whole entry): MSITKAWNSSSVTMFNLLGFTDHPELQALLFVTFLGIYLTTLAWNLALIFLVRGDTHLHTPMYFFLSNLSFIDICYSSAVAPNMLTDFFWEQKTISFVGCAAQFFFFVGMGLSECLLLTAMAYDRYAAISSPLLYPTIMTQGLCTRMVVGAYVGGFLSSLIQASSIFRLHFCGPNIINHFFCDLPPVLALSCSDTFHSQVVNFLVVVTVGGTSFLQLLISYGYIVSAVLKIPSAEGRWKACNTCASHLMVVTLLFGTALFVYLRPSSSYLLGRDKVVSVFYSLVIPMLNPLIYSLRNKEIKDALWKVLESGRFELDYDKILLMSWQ
Method in brief: as §1

OR5A2 (Homo sapiens) = target: T9, OR5A2 (Homo sapiens) (UniProt Q8NGI9)
T9 sequence (whole entry): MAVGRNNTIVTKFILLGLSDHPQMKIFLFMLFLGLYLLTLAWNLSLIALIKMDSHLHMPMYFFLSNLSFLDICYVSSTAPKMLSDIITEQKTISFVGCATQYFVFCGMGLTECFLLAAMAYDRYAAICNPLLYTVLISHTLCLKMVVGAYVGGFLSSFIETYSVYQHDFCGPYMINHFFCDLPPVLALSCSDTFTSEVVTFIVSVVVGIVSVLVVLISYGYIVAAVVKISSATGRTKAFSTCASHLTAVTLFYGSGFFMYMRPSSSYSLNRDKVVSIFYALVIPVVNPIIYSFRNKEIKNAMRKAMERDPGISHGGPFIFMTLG
Method in brief: as §1

OR5AK2 (Homo sapiens) = target: T10, OR5AK2 (Homo sapiens) (UniProt Q8NH90)
T10 sequence (whole entry): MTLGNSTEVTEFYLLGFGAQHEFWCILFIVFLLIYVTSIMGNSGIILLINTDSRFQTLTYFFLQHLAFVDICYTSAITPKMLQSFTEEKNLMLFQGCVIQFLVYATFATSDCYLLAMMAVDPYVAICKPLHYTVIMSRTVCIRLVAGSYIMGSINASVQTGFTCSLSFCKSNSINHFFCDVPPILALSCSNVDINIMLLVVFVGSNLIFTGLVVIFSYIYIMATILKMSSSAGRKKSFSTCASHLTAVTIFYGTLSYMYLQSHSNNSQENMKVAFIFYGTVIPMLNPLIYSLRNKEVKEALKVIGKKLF
Method in brief: as §1

Measured: odorant receptor agonist call;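 further: active if original authors judged signal statistically different from baseline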

CCCCOC(C)=O
inactive: all assays above
